# Assay results taken from PubChem BioAssay AID1347076 (National Center for Advancing Translational Sciences (NCATS), 2019).
# The campaign covered roughly 400,000 compounds. About 13,000 (3.2%) were called active. This list was built around the results that the source calls inconclusive (neither active nor inactive); the mix of calls is not that of the screen. Calls follow the shape of the dose curve; as a rule, active = well fitted cell-killing curve with a large enough effect; inconclusive = small, poorly fitted or top-dose-only effect, or effect the other way; inactive = flat fitted curve, though single readings scatter. Potencies of inconclusive entries are doubtful fits and often do not repeat.
# Test: qHTS assay for MDR1-selective chemotherapeutics: Primary screen using the drug-selected MDR subline cells KB-V1; also: nearly all actives have a fitted effect of over 60% in size
# Conditions: KB-V1 MDR cells viability, CellTiter-Glo, 72 h; activity change, negative = cytotoxicity: at 46.1 µM (top of the series)
# Outline: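 Cytotoxicity toward P-gp-expressing KB-V1 cells was determined as loss of CellTiter-Glo luminescence after 72 h at 37 degrees C. Compounds were tested in quantitative HTS format across a concentration range, with curves fitted to normalized data.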
# % is scaled to controls: 0 for no effect and ±100 for the full control effect; potency is read from the fitted curve at half-maximal effect.
Structure (SMILES),Potency,"activity change, negative = cytotoxicity"
COc1ccc(OC)c(NC(=O)CSc2n[nH]c(-c3ccccc3Cl)n2)c1,"inconclusive: 32.6 µM [cytotoxic, partial curve, poor fit]",
O=C1NC[C@@H](CCCCN2CCN(Cc3ccccc3)C(=O)C2=O)N(CC2CCCCC2)C1=O,"inconclusive: 29.1 µM [rising, single point]",
CC(N=C1NC(C)(C)Cc2ccccc21)C(=O)O (stereo not given),"inconclusive: 1.64 µM [rising, single point]",
CC(C)OC(=O)c1cc2c(ccn2C)n1CC(=O)N(Cc1ccccc1)c1ccccc1,active: 14.6 µM,
CCOC(=O)c1c(C)[nH]c(C2=NNC(=Nc3ccc(OCC)cc3)SC2)c1C,,inactive: 0%
Cc1cccc(C)c1OCC(=O)Nc1oc(-c2ccccc2)c(-c2ccccc2)c1C#N,active: 16.4 µM,
c1ccc(-c2oc3ncnc(NCCCn4ccnc4)c3c2-c2ccccc2)cc1,,inactive: -28%
C[C@@]12C(=O)Nc3cc(Cl)ccc3C(=O)N1[C@H]1c3cc(Cl)ccc3OC[C@@H]1[C@@H]2c1ccccc1,"inconclusive: 25.9 µM [cytotoxic, single point]",
N#Cc1c(-c2ccccc2Cl)c2c([nH]c1=O)-c1ccccc1OC2,,inactive: 3.91%
C/C(=N\NC(=S)NCCc1ccccc1)c1ccc(Cl)cc1Cl,,inactive: -26%
Cn1c(Cc2ccc3c(c2)OCO3)nnc1SCC(=O)N1CCc2ccccc2C1,active: 16.4 µM,
COc1cc(OC)c(C2=NOC(C(=O)NCc3cccs3)C2)cc1Cl (stereo not given),active: 7.31 µM,
C=CCNc1nc(-c2sc(NC(=O)C(C)(C)C)nc2C)c(-n2cc(-c3ccccc3)nn2)s1,active: 16.4 µM,
CCOC(=O)c1ccc(NC(=O)CN(c2ccc(C)cc2)S(=O)(=O)c2ccc(OC)cc2)cc1,,inactive: -19.6%
COc1cccc(COC(=O)Nc2ccccc2)c1OC,"inconclusive: 29.1 µM [cytotoxic, single point]",
CC12CCC(C(=O)N3CCCc4ccccc43)(OC1=O)C2(C)C (stereo not given),"inconclusive: 23.1 µM [cytotoxic, single point]",
COc1ccc(OC)c(NC(=O)CSC2=Nc3ccccc3C3=NC(CCC(=O)NCc4ccco4)C(=O)N23)c1 (stereo not given),,inactive: 5.53%
CCOC(=O)N1CCN(c2nc(-c3ccco3)cc(C(F)(F)F)n2)CC1,"inconclusive: 18.4 µM [cytotoxic, partial curve, poor fit]",
O=C(C1CCN(Cc2ccc(Cl)cc2)CC1)N1CCN(C(c2ccccc2)c2ccccc2)CC1,"inconclusive: 18.4 µM [cytotoxic, partial curve, poor fit]",
O=S1(=O)c2ccccc2N(Cc2ccc(Cl)cc2F)c2ccccc21,,inactive: -13.1%
CCn1c(SCC(=O)NCCc2ccccc2)nnc1-c1cccs1,active: 20.6 µM,
Cc1cc(C(=O)CSc2n[nH]c(N)n2)c(C)n1-c1ccc2c(c1)OCO2,"inconclusive: 16.4 µM [cytotoxic, single point]",
CCC(Oc1ccccc1)C(=O)Nc1ccccc1C(=O)N1CCCCC1 (stereo not given),active: 11.6 µM,
O=C(N/N=C/c1cc(Cl)ccc1O)C(=O)Nc1ccccc1OC(F)(F)C(F)F,"inconclusive: 2.06 µM [cytotoxic, partial curve, poor fit]",

Structure (SMILES),Potency,"activity change, negative = cytotoxicity"
CCCOc1ccc(C(=O)N2CCCc3ccccc32)cc1,"inconclusive: 35.5 µM [cytotoxic, single point]",
COc1ccc(CCNc2cc(C)nc3c(-c4ccccc4)c(C)nn23)cc1OC,active: 8.2 µM,
COc1ccc(C(=O)ON=C2CCN(C)CC2)cc1,,inactive: 7.84%
CCc1nc2c(OCc3ccc(F)c(F)c3)cccn2c1N(C)C(=O)c1ccco1,"inconclusive: 4.61 µM [cytotoxic, partial curve]",
COc1ccc(S(=O)(=O)N2Cc3ccccc3CC2C(=O)Nc2nccs2)cc1 (stereo not given),active: 20.6 µM,
Cc1ccc(CN=c2c([N+](=O)[O-])nn(-c3cccc(C)c3)n2O)cc1,,inactive: 6.09%
O=[N+]([O-])c1cc([N+](=O)[O-])c2oc(-c3ccccc3)c(Br)c2c1O,"inconclusive: 29.1 µM [cytotoxic, single point]",
O=[N+]([O-])c1ccc(S(=O)(=O)N2CCC3(CC2)OCCN3S(=O)(=O)c2cccs2)cc1,"inconclusive: 29.1 µM [cytotoxic, single point]",
COC(=O)CC1Oc2ccc(C)cc2NC1=O (stereo not given),,inactive: 21.4%
CCOC(=O)N1CCC(NC(=O)c2cc(C(=O)Nc3cccc(C(F)(F)F)c3)ccc2CO)CC1,,inactive: 0.763%
Cc1ccc(-c2nc3ccc([N+](=O)[O-])cc3[nH]2)cc1,,inactive: -2.82%
COc1ccc(N2CCN(CCCNC(=O)Nc3ccccc3Cl)CC2)cc1,,inactive: -2.81%
CCOc1ccc(-c2nc3c(c(SCC(=O)N4CCCCC4)n2)Cc2cc(C)ccc2O3)cc1,"inconclusive: 25.9 µM [rising, single point]",
N#Cc1cccc(NC(=O)Cn2cnc(S(=O)(=O)N3CCCC3)c2)c1,"inconclusive: 29.1 µM [rising, single point]",
COc1cc2c(cc1OC)C1=NC(=O)CN1C(SCc1ccc(C)cc1)=N2,"inconclusive: 1.64 µM [cytotoxic, full curve]",
O=C(NCCS(=O)(=O)N1CCN(c2ccccc2)CC1)c1ccc(Br)o1,"inconclusive: 25.9 µM [cytotoxic, single point]",
CCOc1ccc(C2=C(C=C(C#N)C#N)C(c3ccccc3)c3ccccc3O2)cc1 (stereo not given),"inconclusive: 20.6 µM [cytotoxic, single point]",
Cc1ccc(C)c(Cn2c3ccccc3c3cnn(CC(=O)NCCCN4CCOCC4)c(=O)c32)c1,"inconclusive: 29.1 µM [cytotoxic, partial curve, poor fit]",
CCCCCCc1cc2cc(/C(N)=N/NC(=O)c3ccncc3)c(=O)oc2cc1O,,inactive: -1.85%
Clc1ccccc1NCSC1=NCCS1,,inactive: 12.4%
CCC(CC)C(=O)Nc1c(C(=O)N2CCN(c3ccccc3F)CC2)oc2ccccc12,"inconclusive: 20.6 µM [cytotoxic, partial curve]",
CCN(CC)c1c(C)nc2ccc(C(=O)N3CCN(C(=O)c4ccco4)CC3)cn12,,inactive: -14.8%
Cc1ccc2c(c1)N(CC(=O)N1CCCc3ccccc31)C(=O)CO2,active: 11.6 µM,
CCCn1c2ccccc2c2cnn(CC(=O)N(CCCOC(C)C)Cc3ccco3)c(=O)c21,"inconclusive: 32.6 µM [cytotoxic, single point]",

# By substructure: those above with a Cl atom
Structure (SMILES),Potency,"activity change, negative = cytotoxicity"
COc1ccc(OC)c(NC(=O)CSc2n[nH]c(-c3ccccc3Cl)n2)c1,"inconclusive: 32.6 µM [cytotoxic, partial curve, poor fit]",
C[C@@]12C(=O)Nc3cc(Cl)ccc3C(=O)N1[C@H]1c3cc(Cl)ccc3OC[C@@H]1[C@@H]2c1ccccc1,"inconclusive: 25.9 µM [cytotoxic, single point]",
N#Cc1c(-c2ccccc2Cl)c2c([nH]c1=O)-c1ccccc1OC2,,inactive: 3.91%
C/C(=N\NC(=S)NCCc1ccccc1)c1ccc(Cl)cc1Cl,,inactive: -26%
COc1cc(OC)c(C2=NOC(C(=O)NCc3cccs3)C2)cc1Cl (stereo not given),active: 7.31 µM,
O=C(C1CCN(Cc2ccc(Cl)cc2)CC1)N1CCN(C(c2ccccc2)c2ccccc2)CC1,"inconclusive: 18.4 µM [cytotoxic, partial curve, poor fit]",
O=S1(=O)c2ccccc2N(Cc2ccc(Cl)cc2F)c2ccccc21,,inactive: -13.1%
O=C(N/N=C/c1cc(Cl)ccc1O)C(=O)Nc1ccccc1OC(F)(F)C(F)F,"inconclusive: 2.06 µM [cytotoxic, partial curve, poor fit]",
COc1ccc(N2CCN(CCCNC(=O)Nc3ccccc3Cl)CC2)cc1,,inactive: -2.81%
Clc1ccccc1NCSC1=NCCS1,,inactive: 12.4%

# Taken from above:
# Potency with `COc1ccc(CCNc2cc(C)nc3c(-c4ccccc4)c(C)nn23)cc1OC` is entered as active: 8.2 µM
# activity change, negative = cytotoxicity with `CCCCCCc1cc2cc(/C(N)=N/NC(=O)c3ccncc3)c(=O)oc2cc1O` is entered as inactive: -1.85%

# The list goes on.

Structure (SMILES),Potency,"activity change, negative = cytotoxicity"
COc1ccc([N+](=O)[O-])cc1NC(=O)C1C2C=CC(C2)C1C(=O)O (stereo not given),,inactive: -30.5%
CCOC(=O)C1=C(Cc2ccc(Cl)cc2)C(=O)c2ccccc2C1=O,"inconclusive: 29.1 µM [cytotoxic, single point]",
Brc1ccc2nc(-c3ccncc3)c(NC3CCCC3)n2c1,,inactive: -8.41%
Oc1ccc(C[C@H]2CN([C@@H](Cc3ccccc3)CN3CCCC3CN3C(=S)NC[C@@H]3Cc3ccccc3)C(=S)N2CCc2ccccc2)cc1 (stereo not given in full),"inconclusive: 13 µM [cytotoxic, partial curve, poor fit]",
CSc1n[nH]c2nc3c(c(=O)n12)C1(CCCC1)Cc1ccccc1-3,"inconclusive: 16.4 µM [cytotoxic, single point]",
N#Cc1ccccc1CSc1nnc(-c2ccccc2)o1,"inconclusive: 16.4 µM [cytotoxic, single point]",
COc1ccc(OC)c(C2C(C(=O)c3ccco3)=C(O)C(=O)N2Cc2cccnc2)c1 (stereo not given),"inconclusive: 20.6 µM [rising, single point]",
COc1ccc(/C=N/n2c(-c3cc(C)[nH]n3)n[nH]c2=S)cc1OC,"inconclusive: 2.31 µM [rising, full curve, poor fit]",
CCN(CC)CCN(Cc1cc2ccc(C)cc2[nH]c1=O)C(=S)Nc1ccccc1C(=O)OC,"inconclusive: 29.1 µM [cytotoxic, single point]",
COc1ccc(-c2cnnc(N/N=C/c3c(C)nn(-c4ccccc4)c3Cl)n2)cc1,"inconclusive: 2.59 µM [cytotoxic, partial curve]",
COc1cccc(C(=O)OCC(=O)NC(C)CCc2ccccc2)c1O (stereo not given),,inactive: -6.93%
Cc1c(NS(=O)(=O)c2ccc(NCCN3CCOCC3)c([N+](=O)[O-])c2)c(=O)n(-c2ccccc2)n1C,"inconclusive: 29.1 µM [rising, single point]",
CC(C)CCCN1C(N(C)C)=NC[C@@H]1Cc1ccccc1,,inactive: 1.77%
CCCOc1ccc(/C=C/C(=O)Nc2ccc([N+](=O)[O-])cc2)cc1,active: 25.9 µM,
CCCCc1c(C)nn(-c2nnc3c4ccccc4n(C)c3n2)c1C,"inconclusive: 6.51 µM [cytotoxic, partial curve, poor fit]",
CCCCn1c(N)c(N(CCC(C)C)C(=O)C2=NN(c3ccccc3)C(=O)CC2)c(=O)[nH]c1=O,"inconclusive: 29.1 µM [rising, single point]",
N#Cc1c(C(F)(F)F)cc(-c2cccs2)nc1SCC(=O)Nc1ccc(Cl)cc1,,inactive: -16.4%
COc1ccccc1N=C(C)C1=C(O)CC(c2ccccc2)CC1=O (stereo not given),active: 1.46 µM,
O=C(N/C=N/O)C(c1ccccc1)c1ncc(C(F)(F)F)cc1Cl (stereo not given),,inactive: 3.19%
O=C(Cn1c(=O)n(Cc2ccc(F)cc2)c(=O)c2sc3ccccc3c21)NCc1ccccc1Cl,,inactive: 3.08%
CN1Cc2c(N3CCOCC3)nc3sc(C(=O)c4ccc(Br)cc4)c(N)c3c2CC1(C)C,"inconclusive: 25.9 µM [cytotoxic, single point]",
Cc1cccc(C)c1NC(=O)CNC(=O)c1ccccc1OCc1ccccc1,"inconclusive: 2.31 µM [cytotoxic, full curve, poor fit]",
